# Results as given in PubChem BioAssay AID445 (National Center for Advancing Translational Sciences (NCATS), 2006).
# The list shows a part of the results. Shown are side measurements of this screen, not its main read-out; they come without a call. Compounds called inactive in the main read-out are mostly missing here. Words in brackets tell the shape of the fitted curve; partial curves, single points and poor fits give uncertain potencies.
# Test: IkB Signaling
# Details: ABC-DLBCL IkBa-CBG/CBR dual luciferase ratio (green luciferase fused to IkBa over red control in OCI-Ly3 lymphoma cells), 4 h
# Outline: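 In this assay, an IκBα–CBG68 fusion accumulates when IKK-driven degradation is blocked; native CBR normalizes for cell number. OCI-Ly3 cells were treated 4 h with compound and doxycycline, then green and red light read after Chroma-Glo addition.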
# [1] = measured here: control luc red channel unless noted
# [2] = measured here: IkB-luc green channel
# [3] = measured here: control luc red channel
compound,measurement,setting,value
CCc1ccc2c(c1)C(NC(C)=O)C(=O)N2CC (stereo not given),AC50,[1],"2 µM [rising, partial curve] [measured here: IkB-luc green channel]"
CCCC1=Nc2cc(C(=O)NCCc3ccc(OCC)cc3)ccc2Sc2ccccc21,AC50,[1],"0.794 µM [falling, full curve]"
COc1cc2c(-c3ccccc3O)nc3c(c(C)nn3-c3ccccc3)c2cc1OC,AC50,[1],"39.8 µM [falling, single point]"
Cc1nc2sc(C(c3cccs3)N3CC(C)CC(C)C3)c(O)n2n1 (stereo not given),AC50,[2],"31.6 µM [rising, partial curve]"
same,AC50,[3],"10 µM [falling, partial curve]"
CCN(CCCNC(=O)c1ccc(Sc2ccc(F)cc2)c(NC(C)=O)c1)c1ccccc1,AC50,[1],"12.6 µM [falling, single point]"
COc1ccc(CNC(=O)Cn2c(=O)nc(-c3ccccc3F)c3cc(Cl)ccc32)cc1,AC50,[1],"10 µM [falling, partial curve]"
CCN(CC)C(=O)CSc1nc2cc3c(cc2c(=O)n1CCCCCC(=O)NCc1ccc(OC)cc1)OCO3,AC50,[1],"39.8 µM [falling, single point]"
N#Cc1c(NC(=O)Cn2c(=O)oc3ccccc32)oc(-c2ccccc2)c1-c1ccccc1,AC50,[1],"5.01 µM [falling, partial curve]"
Cc1ccc(-c2nc3c(C)cccn3c2Nc2ccccc2C)s1,AC50,[1],"25.1 µM [falling, partial curve]"
Cc1ccc(F)cc1NC(=O)Cn1c(=O)nc(-c2ccccc2F)c2cc(Cl)ccc21,AC50,[1],"3.98 µM [falling, full curve]"
O=c1oc2ccccc2cc1-c1cn2cccnc2n1,AC50,[1],"20 µM [falling, partial curve]"
CC1CCCN(c2nc3c(S(=O)(=O)c4ccc(C(C)C)cc4)nnn3c3ccsc23)C1 (stereo not given),AC50,[1],"10 µM [falling, partial curve]"
CCCCCn1c(=O)[nH]c2cc(C(=O)N3CCN(c4cc(Cl)ccc4C)CC3)ccc2c1=O,AC50,[1],"6.31 µM [falling, partial curve]"
Cc1ccc(C(=O)OCc2cc(=O)n3nc(-c4cccs4)sc3n2)cc1,AC50,[1],"1.58 µM [falling, full curve, poor fit]"
COc1ccccc1NC(=O)Cn1c(=O)n(Cc2cccs2)c(=O)c2cccnc21,AC50,[1],"15.8 µM [falling, partial curve]"
CCOC(=O)c1ccc(Nc2nc3nonc3nc2Nc2cccc(C)c2C)cc1,AC50,[1],"1.58 µM [falling, full curve]"
COCCn1nnnc1C(c1cc2ccc(C)cc2[nH]c1=O)N(Cc1ccco1)Cc1cccs1 (stereo not given),AC50,[1],"31.6 µM [falling, single point]"
Cc1cccc(NC(=O)Cn2cc(C(=O)C3CCCCC3)c3ccccc32)c1C,AC50,[1],"7.94 µM [falling, full curve]"
CCOc1ccc(C(=O)c2cn(CC(=O)Nc3ccc4c(c3)OCCO4)c3ccc(OC)cc3c2=O)cc1,AC50,[1],"10 µM [falling, partial curve]"
O=C(NCc1ccccc1)c1cc2sccc2n1Cc1ccc(F)cc1,AC50,[1],"5.01 µM [falling, full curve, poor fit]"
CC(=O)c1ccc(NC(=O)c2ccc3c(c2)nnn3C2CCCC2)cc1,AC50,[1],"39.8 µM [rising, single point]"
Cc1ccc(C)c(NC(=O)c2nc(S(C)(=O)=O)ncc2N(Cc2ccc(C(C)(C)C)cc2)Cc2ccco2)c1,AC50,[1],"31.6 µM [falling, single point]"
COc1cc(C2C(C#N)=C(N)Oc3cc(N(C)C)ccc32)cc2c1OCO2 (stereo not given),AC50,[2],"0.316 µM [rising, full curve, poor fit]"
same,AC50,[3],"0.0501 µM [rising, full curve]"
Cn1c(=O)c(C(=O)CN2CCCc3ccccc32)c(N)n(Cc2ccccc2)c1=O,AC50,[1],"39.8 µM [falling, single point]"
COC(=O)C1=C(C)N(CCC2=CCCCC2)C(=O)C1,AC50,[2],"39.8 µM [rising, single point]"
same,AC50,[3],"31.6 µM [falling, single point]"
O=C(Oc1ccc2c(c1)OCO2)c1cc2c(s1)CCC2,AC50,[1],"31.6 µM [rising, single point]"
O=C(NC1CCCCC1)/C(=C/c1ccc(Cl)cc1)NC(=O)c1ccccc1,AC50,[1],"31.6 µM [falling, partial curve]"
N#Cc1c(NC(=O)CSc2ncnc3sccc23)oc(-c2ccco2)c1-c1ccco1,AC50,[1],"15.8 µM [falling, partial curve]"
COC(=O)Cc1nc2ccccc2[nH]1,AC50,[1],"10 µM [falling, partial curve]"
Cc1nn(-c2ccccc2)c2sc(C(=O)N3CCCCC3)cc12,AC50,[1],"20 µM [falling, single point]"
O=C(O)CCc1ccc(-c2ccc(Cl)cc2)n1-c1cccc(C(F)(F)F)c1,AC50,[1],"31.6 µM [falling, partial curve]"
Cc1ccc2[nH]c3c(=O)n(CC(=O)N(C)Cc4ccccc4)ncc3c2c1,AC50,[1],"20 µM [falling, single point]"
CCOC(=O)c1cnc(NCc2ccc(Cl)cc2)c2ccccc12,AC50,[1],"39.8 µM [falling, partial curve]"
Cn1c(CN2CCCCC2)nc2cc(NC(=O)c3ccc(Cl)cc3)ccc21,AC50,[1],"1.58 µM [falling, full curve]"
Cc1ccc(-n2c(C)cc(C3N=C(N)Nc4nc5ccccc5n43)c2C)c(C)c1 (stereo not given),AC50,[2],"39.8 µM [falling, single point]"
same,AC50,[3],"31.6 µM [falling, single point]"
c1cc2c(cc1-c1cnc3n1CCC3)OCCO2,AC50,[1],"15.8 µM [falling, partial curve]"
Nc1cc(N)c(OCC(F)(F)F)cc1OCC(F)(F)F,AC50,[1],"3.98 µM [rising, partial curve] [measured here: IkB-luc green channel]"
Cc1nn(CC(=O)NCc2ccccc2Br)c(=O)c2cc3occc3n12,AC50,[1],"0.0126 µM [rising, full curve, poor fit]"
CNc1oc(/C=C/c2cc(OC)c(OC)c(OC)c2)nc1C#N,AC50,[1],"25.1 µM [falling, single point]"
CCOc1ccccc1NC(=O)CSc1nccn1Cc1ccc(F)cc1,AC50,[1],"15.8 µM [rising, partial curve]"
Cc1ccc(C(=O)Nc2ccc(F)cc2)cc1S(=O)(=O)N1CCOCC1,AC50,[1],"39.8 µM [falling, partial curve]"
Cc1ccccc1CNC(=O)c1ccc2c(c1)N(Cc1ccccc1)CCS2,AC50,[1],"15.8 µM [falling, partial curve]"
Cc1ccc2[nH]c3c(NCc4ccco4)ncnc3c2c1,AC50,[1],"10 µM [falling, partial curve]"
O=C(CCCn1c(=S)[nH]c2cc3c(cc2c1=O)OCO3)N1CCc2ccccc2C1,AC50,[1],"20 µM [falling, partial curve]"
O=C(CCCn1c(=O)c2cccn2c2cccnc21)Nc1ccccc1Br,AC50,[1],"1.26 µM [rising, full curve]"
CCOC(=O)c1c(NC(=O)/C=C/c2ccc(OCC)cc2)sc2c1CCC2,AC50,[1],"20 µM [rising, partial curve]"
Cc1ccc(CNC(=O)Cn2cc(C(=O)c3ccc(Cl)cc3)c(=O)c3ccc(C)nc32)cc1,AC50,[1],"39.8 µM [falling, partial curve]"
CC(=O)c1cccc(NC(=O)c2cc(-c3ccc4c(c3)OCCO4)on2)c1,AC50,[1],"3.98 µM [falling, full curve]"
COC(=O)c1ccccc1NC(=O)CCCS(=O)(=O)c1nc(-c2ccccc2OC)cc(C(F)(F)F)n1,AC50,[1],"3.16 µM [falling, full curve]"
COC(=O)c1ccc(NC(=O)c2c(NCc3ccc(OC)c(OC)c3)sc3c2CCCC3)cc1,AC50,[1],"5.01 µM [falling, full curve]"
CCOC(=O)c1cccc(NC(=O)C2CCN(S(=O)(=O)c3cccs3)CC2)c1,AC50,[1],"39.8 µM [falling, single point]"
Cc1cc(NC(=O)CSc2ncc(C(=O)Nc3ccccc3)c(=O)n2C)no1,AC50,[1],"31.6 µM [rising, single point] [measured here: IkB-luc green channel]"
Cc1cc(C(=O)CSc2nnc(C3COc4ccccc4O3)n2C)c(C)n1-c1ccc(F)cc1 (stereo not given),AC50,[1],"25.1 µM [falling, partial curve]"
COc1ccccc1CNC(=O)C(Cc1ccccc1)NS(=O)(=O)c1ccc2c(c1)CCN2C(C)=O (stereo not given),AC50,[1],"12.6 µM [falling, single point]"
Cc1ccccc1NC(=O)c1ccc(CNS(=O)(=O)c2ccc3c(c2)C(C)(C)C(=O)N3C)cc1,AC50,[1],"3.16 µM [falling, single point]"
O=C(NCc1ccccn1)c1nn(-c2ccccc2Cl)nc1CO,AC50,[1],"25.1 µM [falling, partial curve, poor fit]"
Cc1nc2sc3c(c2c2nnc(SCC(=O)NCc4ccco4)n12)CCCC3,AC50,[1],"31.6 µM [falling, partial curve]"
CCN(CC)C(=O)C1=C(C)Nc2nc3ccccc3n2C1c1ccc(Cl)cc1 (stereo not given),AC50,[1],"31.6 µM [falling, partial curve]"
Cc1ccc(Cl)cc1N(C)C(=O)c1cc2ccc3cccnc3c2[nH]1,AC50,[1],"25.1 µM [falling, single point]"
CC(=O)OC/C=C(C)/C=C/C=C(C)/C=C/C1=C(C)CCCC1(C)C,AC50,[1],"39.8 µM [rising, partial curve, poor fit] [measured here: IkB-luc green channel]"
CCCCOc1ccc(C(=O)NCCc2csc3nc(-c4ccccc4F)nn23)cc1,AC50,[1],"25.1 µM [falling, partial curve]"

# Two entries from above, bar-delimited.
compound | measurement | setting | value
CC1CCCN(c2nc3c(S(=O)(=O)c4ccc(C(C)C)cc4)nnn3c3ccsc23)C1 (stereo not given) | AC50 | [1] | 10 µM [falling, partial curve]
O=C(NCc1ccccn1)c1nn(-c2ccccc2Cl)nc1CO | AC50 | [1] | 25.1 µM [falling, partial curve, poor fit]

# Retrieved one by one from the entries so far (3):
compound,measurement,setting,value
Cc1ccc(C(=O)OCc2cc(=O)n3nc(-c4cccs4)sc3n2)cc1,AC50,[1],"1.58 µM [falling, full curve, poor fit]"
Cc1ccccc1CNC(=O)c1ccc2c(c1)N(Cc1ccccc1)CCS2,AC50,[1],"15.8 µM [falling, partial curve]"
CCc1ccc2c(c1)C(NC(C)=O)C(=O)N2CC (stereo not given),AC50,[1],"2 µM [rising, partial curve] [measured here: IkB-luc green channel]"
